Hit rate of the full screen: of about 2,400 compounds, about 20 (0.8%) were called active.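 How the source made its calls: active means AC50 no more than ten times the highest tested concentration, or full inhibition at every dose giving a flat fit (cut at about 30 µM in these data); inconclusive means flat fit with activity between 30% and 70%, or poor-quality invalid fit; inactive means AC50 more than ten times the top tested dose.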 The list shows a part of the results.
assay: luciferase-based ADP detection interference – biochemical, luminescence, cell-free, homogeneous, artefact control for GSK-3a inhibitor project, dose response (AID 463205); details: Cell-free ADP-Glo detection reagents, 5 uM ADP;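 further: kinase-free counter-screen against the ADP-Glo detection reagents only; potency is for inhibitors that reduce the luminescence signal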

SMILES	AC50
Cc1[nH]nc(NCCO)c1[N+](=O)[O-]	inactive: > 30 µM
COc1cccc(C2CC(=O)Nc3cc(OC)c(OC)c(OC)c32)c1OC (stereo unspecified)	inactive: > 30 µM
CCC(C)Sc1nc2c(c(=O)[nH]1)C(c1cccs1)C1=C(CCCC1=O)N2 (stereo unspecified)	inactive: > 30 µM
COC(=O)c1sc2nc(N3CCCCC3)c3c(c2c1N)CCCC3	inactive: > 30 µM
O=C1CC(c2cccs2)CC2=C1C(c1ccccc1)n1ncnc1N2 (stereo unspecified)	inactive: > 30 µM
O=S(=O)(c1cccc(NC(=S)NCc2ccco2)c1)N1CCOCC1	inactive: > 30 µM
CCn1c(SCC(=O)Nc2nc3ccc(OC)cc3s2)nnc1-c1ccoc1C	inactive: > 30 µM
COC(=O)c1cn(-c2ccccc2)nc1-c1cccnc1	inactive: > 30 µM
COc1ccccc1C(=O)O/N=C(\N)c1ccccn1	inactive: > 30 µM
CCOC(=O)c1c(NC(=S)N2CCOCC2)sc2c1CCN(C(=O)OCC)C2	inactive: > 30 µM
CCOc1cc2c(C#N)c(N3CCCC3)nc(N)c2c(N)n1	inactive: > 30 µM
Cc1ccc(-n2nnnc2CSc2nnc(-c3ccc(O)cc3)o2)cc1	inactive: > 30 µM
O=C(NCc1c(F)cccc1F)c1cc(COc2c(F)cccc2F)on1	inactive: > 30 µM
O=c1[nH]ncc(N/N=C\c2ccncc2)c1Cl	inactive: > 30 µM
COCCNc1cc(N)c([N+](=O)[O-])cc1[N+](=O)[O-]	inactive: > 30 µM
Cc1ccc(SCCc2cc[n+](CC(=O)c3ccccc3)cc2)cc1	inactive: > 30 µM
Cc1nnc(SCC(=O)Nc2sc3c(c2C(=O)c2ccccc2)CCCC3)s1	inactive: > 30 µM
CCSc1nnc2ccc(-c3cccs3)nn12	inactive: > 30 µM
N#Cc1c(Cl)c(Cl)c2nnc(-c3ccc(Br)cc3)n2c1Cl	inactive: > 30 µM
COc1ccc(C(=O)NNC(=O)c2ccccn2)cc1	active: 14.9 µM
COC(=O)c1nnn(CC(=O)NC(=O)Nc2cccc(Cl)c2C)c1C(=O)OC	inactive: > 30 µM
CCOc1ccc(-c2nnc(N)o2)cc1	inactive: > 30 µM
O=C(Nc1cccc(C(=O)N2CCOCC2)c1)c1cccnc1	inactive: > 30 µM
Cc1cccc(Nc2ncccc2C(=O)O)c1C	inactive: > 30 µM

Copied from the list.
Cc1ccc(-n2nnnc2CSc2nnc(-c3ccc(O)cc3)o2)cc1 – AC50: inactive: > 30 µM
N#Cc1c(Cl)c(Cl)c2nnc(-c3ccc(Br)cc3)n2c1Cl – AC50: inactive: > 30 µM

Later entries

SMILES	AC50
COc1ccc(CCNC(=O)CSc2nc3[nH]ncc3c(=O)n2-c2ccc(Cl)cc2Cl)cc1OC	inactive: > 30 µM
CCc1cc2c(NCc3ccco3)ncnc2s1	inactive: > 30 µM
COC(=O)C1C(=O)c2c([nH]c(C(=O)OCCOC(C)C)c2C)CC1C (stereo unspecified)	inactive: > 30 µM
COc1cccc(-c2[nH]nc3c2C(c2ccc(C)o2)C(C#N)=C(N)O3)c1 (stereo unspecified)	inactive: > 30 µM
COc1ccc(NC(=O)Nc2ccccc2F)c(C)c1	inactive: > 30 µM
COCCCNc1ncnc2sc3c(c12)CCC(C)C3 (stereo unspecified)	inactive: > 30 µM
Cc1ccnc(NC(=O)Cn2c(=O)oc3cc(S(=O)(=O)N4CCCC4)ccc32)c1	inactive: > 30 µM
COc1ccc(CCNc2ncnc3[nH]ncc23)cc1OC	inactive: > 30 µM
COc1cccc(C(=O)O/N=C(\N)c2ccccn2)c1	active: 18.9 µM
CC(OC(=O)Cc1c[nH]c2ccccc12)C(=O)N(C)c1ccccc1 (stereo unspecified)	inactive: > 30 µM
Oc1cc(O)cc(-c2cc3ccc(O)cc3o2)c1	inactive: > 30 µM
CC(=O)Nc1c(C)ccc2nsnc12	inactive: > 30 µM
O=C(COc1ccccc1Cc1ccccc1)Nc1cccnc1	inactive: > 30 µM
O=C1CCCC2=C1C(c1ccc(O)cc1)c1c(ccc3ccccc13)N2 (stereo unspecified)	inactive: > 30 µM
CC1CCN(Cc2c(O)ccc3c2O/C(=C\c2ccco2)C3=O)CC1	inactive: > 30 µM
COc1cc(/C=C2\Oc3ccc(C#Cc4ccc(O)cc4)cc3C2=O)cc(OC)c1	inactive: > 30 µM
CCOC(=O)c1nnn(-c2ccc(OC)cc2)c1N	inactive: > 30 µM
O=C(Nc1ccccc1F)Nc1ccccc1OC(F)F	inactive: > 30 µM
O=P(COCCOCP(=O)(c1ccccc1)c1ccccc1)(c1ccccc1)c1ccccc1	inactive: > 30 µM
CCSc1nc2sc3c(c2c(=O)n1-c1ccccc1C)CCN(C)C3	inactive: > 30 µM
Cc1cc(NCc2ccco2)n2c(nc3ccccc32)c1C#N	inactive: > 30 µM
Cc1ccc(N2CC(C(=O)Nc3ncc([N+](=O)[O-])s3)CC2=O)cc1 (stereo unspecified)	inactive: > 30 µM
Fc1ccc(/C=N/Nc2nc3ccccc3[nH]2)cc1F	inactive: > 30 µM
CSc1nc(SCCN(C)C)c2c3c(sc2n1)COC(C)(C)C3	inactive: > 30 µM

Of the compounds above, these have an aryl methoxy group:
SMILES	AC50
COc1cccc(C2CC(=O)Nc3cc(OC)c(OC)c(OC)c32)c1OC (stereo unspecified)	inactive: > 30 µM
CCn1c(SCC(=O)Nc2nc3ccc(OC)cc3s2)nnc1-c1ccoc1C	inactive: > 30 µM
COc1ccccc1C(=O)O/N=C(\N)c1ccccn1	inactive: > 30 µM
COc1ccc(C(=O)NNC(=O)c2ccccn2)cc1	active: 14.9 µM
COc1ccc(CCNC(=O)CSc2nc3[nH]ncc3c(=O)n2-c2ccc(Cl)cc2Cl)cc1OC	inactive: > 30 µM
COc1cccc(-c2[nH]nc3c2C(c2ccc(C)o2)C(C#N)=C(N)O3)c1 (stereo unspecified)	inactive: > 30 µM
COc1ccc(NC(=O)Nc2ccccc2F)c(C)c1	inactive: > 30 µM
COc1ccc(CCNc2ncnc3[nH]ncc23)cc1OC	inactive: > 30 µM
COc1cccc(C(=O)O/N=C(\N)c2ccccn2)c1	active: 18.9 µM
COc1cc(/C=C2\Oc3ccc(C#Cc4ccc(O)cc4)cc3C2=O)cc(OC)c1	inactive: > 30 µM
CCOC(=O)c1nnn(-c2ccc(OC)cc2)c1N	inactive: > 30 µM

(continued)

SMILES	AC50
COc1ccc(CC(=S)N2CCOCC2)cc1	inactive: > 30 µM
CCN(CC)CCCNc1ncnc2scc(-c3ccc(F)cc3)c12	inactive: > 30 µM
Cc1c2c(n3c(nc4ccccc43)c1C#N)N(CCN(C)C)CC2	inactive: > 30 µM
CC(C)CCNc1nc(N)c([N+](=O)[O-])c(N2CCCCCC2)n1	inactive: > 30 µM
CN(C)Cc1c(C(=O)N/N=C/C=C/c2ccccc2)nnn1-c1nonc1N	inactive: > 30 µM
COc1cccc(C(=O)O/N=C(\N)c2ccccn2)c1OC	inactive: > 30 µM
Clc1ccccc1C1=Nn2c(nnc2-c2ccco2)SC1	inactive: > 30 µM
Cc1ccc2c(c1)N(CCC(=O)NC(C)C)C(=O)CO2	inactive: > 30 µM
CC1CCc2c(sc(NC(=O)CCCn3cnc([N+](=O)[O-])n3)c2C(N)=O)C1 (stereo unspecified)	inactive: > 30 µM
O=C(CSCc1ccc([N+](=O)[O-])cc1)N/N=C/c1cccnc1	inactive: > 30 µM
O=C(CSc1nnc(-c2ccc(O)cc2)o1)Nc1cccc(O)c1	inactive: > 30 µM
O=C(c1ccco1)N(Cc1ccc([N+](=O)[O-])cc1)c1ccc(Cl)cc1	inactive: > 30 µM
CN(C)CCNc1c2c(c(C#N)c3nc4ccccc4n13)CCCC2	inactive: > 30 µM
O=C(NCCCN1CCOCC1)c1cc(Cl)ccc1[N+](=O)[O-]	inactive: > 30 µM
CN(Cc1nc2c(s1)CCCC2)C(=O)CCc1nnc(-c2ccccc2)o1	inactive: > 30 µM
CCOC(=O)c1nnn(-c2nonc2-n2cccc2)c1C	inactive: > 30 µM
CCc1cc(C(=O)OC)c(NC(=O)CN2CCN(C(=O)c3ccco3)CC2)s1	inactive: > 30 µM
O=C(Nc1ccccc1-c1nnc(SCc2ccccc2Cl)o1)c1ccccc1	inactive: > 30 µM
Cc1ccc(S(=O)(=O)N2C(=O)/C(=C3\SC(=S)NC3=O)c3ccccc32)cc1	inactive: > 30 µM
COCCCNc1nc(N)c([N+](=O)[O-])c(N2CCCCCC2)n1	inactive: > 30 µM
COc1cccc(CNc2nc(C(F)(F)F)nc3ccccc23)c1	inactive: > 30 µM
S=c1sc2ccccc2n1CCc1ccncc1	inactive: > 30 µM
O=C1CNC(=S)N1CCCn1ccnc1	inactive: > 30 µM
COC(=O)[C@@H]1[C@H](CCc2ccccc2)NC(=O)N(Cc2ccccc2)[C@@H]1C	inactive: > 30 µM

SMILES	AC50
O=C(Nc1ncc([N+](=O)[O-])s1)C1CC(=O)N(c2ccc(F)cc2)C1 (stereo unspecified)	inactive: > 30 µM
CCc1ccc(C2CC(c3ccc(Cl)cc3)n3nc(N)nc3N2)cc1 (stereo unspecified)	inactive: > 30 µM
CCSc1ccccc1C(=O)Nc1cccnc1	inactive: > 30 µM
COc1ccccc1N1CC(C(=O)Nc2nc(C)cs2)CC1=O (stereo unspecified)	inactive: > 30 µM
CCOC(=O)CSc1nc(N)c(C#N)c(-c2cccs2)c1C#N	inactive: > 30 µM
O=C(CSc1ccccc1)Nc1ccc2c(c1)C(=O)NC2=O	inactive: > 30 µM
O=c1oc2cc(O)ccc2c2ccccc12	inactive: > 30 µM
CCOc1ccc2nc(NC(=O)CSc3ccccc3)sc2c1	inactive: > 30 µM
Nc1nonc1-n1nnc(C(=O)N/N=C/c2cccc(Cl)c2)c1-c1cccs1	inactive: > 30 µM
CC1CCC(C(C)C)C2=C1C(C#N)(C#N)C(C#N)(C#N)C(c1ccccc1)N2 (stereo unspecified)	inactive: > 30 µM
O=[N+]([O-])c1c(NCCCO)cc(Sc2nc3ccccc3s2)c2nonc12	inactive: > 30 µM
CC(C(=O)Nc1cccc(Br)c1)c1ccc([N+](=O)[O-])cc1 (stereo unspecified)	inactive: > 30 µM
CCCC1=C(C(=O)OCC)C(c2ccc(F)cc2)n2ncnc2N1 (stereo unspecified)	inactive: > 30 µM
COc1ccc(-c2nc(N)nc(N)n2)c(O)c1	inactive: > 30 µM
Cc1nc(NCC2CCCO2)nc2c1C(=O)CC(C)(C)C2 (stereo unspecified)	inactive: > 30 µM
C=CCn1cnc2c(c1=O)c1nc3ccccc3nc1n2/N=C/c1cc(OC)c(OC)c(OC)c1	inactive: > 30 µM
CCCOc1cccc(-c2nnc(N)s2)c1	inactive: > 30 µM
Cc1cccc(C)c1OCC(O)CNC(C)C (stereo unspecified)	inactive: > 30 µM
CCCCOc1cccc(-c2nnc(N)s2)c1	inactive: > 30 µM
C/C(=N\NC(=O)c1nnn(-c2nonc2N)c1CN1CCCCCC1)c1ccc(Br)cc1	inactive: > 30 µM
O=c1[nH]ncc2c3ccccc3n(Cc3ccccc3)c12	inactive: > 30 µM
CC(C)C(=O)Nc1ccc2c(c1)C(=O)NC2=O	inactive: > 30 µM
Cc1sc2nc(SCC(=O)Nc3ccc(S(=O)(=O)NCCCC(=O)O)cc3)[nH]c(=O)c2c1C	inactive: > 30 µM
CC1=C(C(=O)OCc2ccccc2)C(c2cccc(Br)c2)NC(=O)N1 (stereo unspecified)	inactive: > 30 µM
